Not every detail of the peptide structures is certain; ends, links or a residue may be inferred. Where a SMILES comes first, the peptide text is derived from it.
Key:
B lymphoma cells Ramos = assay type: cell-based, human
T-cell clone SP2.2 = assay type: cell-based, human

Q: CC[C@H](C)[C@H](NC(=O)CNC(=O)[C@@H](NC(=O)[C@H](Cc1ccccc1)NC(=O)[C@H](CCCCN)NC(=O)[C@H](CO)NC(=O)[C@H](CC(N)=O)NC(=O)[C@H](C)NC(=O)[C@H](CCCCN)NC(=O)[C@@H](NC(=O)[C@H](Cc1ccc(O)cc1)NC(=O)[C@H](CCC(N)=O)NC(=O)[C@@H](N)CS)[C@@H](C)CC)[C@@H](C)CC)C(=O)N[C@H](C(=O)N[C@@H](CCC(=O)O)C(=O)O)[C@@H](C)O [Cys-P2, Cys-Gln-Tyr-Ile-Lys-Ala-Asn-Ser-Lys-Phe-Ile-Gly-Ile-Thr-Glu] (H-CQYIKANSKFIGITE-OH) was tested. Which “plateau of maximum lysis” value (B lymphoma cells Ramos) did it give?
A: 55%

Q: And the “induction of proliferation with gluteraldehyde fixed APC” value (T-cell clone SP2.2)?
A: sufficient to induce proliferation

Q: What about the “positive control level of proliferation (thymidine incorporation)” value (T-cell clone SP2.2) of the same compound?
A: 14'000 CPM
